This is an account of results in US20230055235.

For part of these data: A negative result means that nothing was seen under these conditions. For part of these data: Weaker means in comparison with the reference protein, sequence or condition of that experiment.

Data set [1] concerns the target T1, PD-L1 (programmed death-ligand 1) (Homo sapiens?) (UniProt Q9NZQ7). The data set can be described thus: activity in cells. The settings on record: protein on the cell surface, single-stranded DNA.
For data set [2], the target named is T1, PD-L1 (programmed death-ligand 1). The data set can be described thus: inhibition of the protein. As to conditions: Bz-dU at every n, purified recombinant protein, protein details: BPS PD-1/PD-L1 inhibition ELISA kit, single-stranded DNA. In general terms: In an ELISA, binding on a coated surface is turned into a signal by an enzyme label.
Where [3] appears, read: Bz-dU at every n, PD-1/PD-L1 blockade in luciferase reporter co-culture, dose not given here.

As for “GAGTGACCGTCTGCCTGATGAAAAGTTTTTGATTGTACCTTAGTGCACTCAACAGTGCAGCCACACCACCAGCC [PL001]”, the “functional effect of the aptamer” value in data set [1] (5-(N-benzylcarboxamide)-2'-deoxyuridine (Bz-dU) at every n, PD-1/PD-L1 blockade in luciferase reporter co-culture, dose not given here) is “active”.
As for AGTTTTTGATTGTACCTTAGTG [PL022], the IC50 in data set [2] (variant of PL001) is more than 120 nM.
Take “GAGTGACCGTCTGCCTGTTAAGCGGCTAAGTTTTTGATTGTACCTTAGTGCCCTTACCAGCCACACCACCAGCC [PL010]”: the “functional effect of the aptamer” value in data set [1] (setting [3]) was “active”.
For the sequence CCGCACGATCGCCCTATTTTGCGAGTT [PL008], the IC50 in data set [2] (variant of PL002) was more than 120 nM.
On to “GAGTGACCGTCTGCCTGTGTATGCCGCACGATCGCCCTATTTTGCGAGTTTACTCACAGCCACACCACCAGCC [PL002]”, for which the “functional effect of the aptamer” value in data set [1] (setting [3]) is “active”.
On to “ATGAAAAGTTTTTGATTGTACCTTAGTGCACTCAACAGTGCAGCC [PL018]”, for which the half-inhibitory concentration (IC50) in data set [2] (variant of PL001) was more than 120 nM.
For the sequence “GAGTGACCGTCTGCCTGTGTATGCCGCACGATCGCCCTATTTTGCGAGTTTAACTGACAGCCACACCACCAGCC [PL028]”, the “functional effect of the aptamer” value in data set [1] (setting [3]) is on record as “active”.
Take “ATGCCGCACGATCGCCCTATTTTGCGAGTTTAC [PL007]”: in data set [1] (Bz-dU at every n, relatively weak inhibition in cells, variant of PL002, dose not given here), the “functional effect of the aptamer” value is given as “less active”.
With TTGATTGTACCTTAGTGCACTCAA [PL020], the IC50 in data set [2] (variant of PL001) was more than 120 nM.
“GAGTGACCGTCTGCCTGCCATTTCCTGCTTGCTCTTCCTCCTTTATTTTTCACCTTTCAGCCACACCACCAGCC [PL029]”: the “functional effect of the aptamer” value in data set [1] (Bz-dU at every n, no PD-1/PD-L1 inhibition in reporter co-culture, dose not given here) is on record as “not active”.
Regarding “TGTATGCCGCACGATCGCCCTATTTTGCGAGTTTACTCA [PL006]”, the “functional effect of the aptamer” value in data set [1] (Bz-dU at every n, inhibitory activity confirmed, variant of PL002, dose not given here) is listed as “active”.
Regarding “GCCTGTGTATGCCGCACGATCGCCCTATTTTGCGAGTTTACTCACAGCC [PL005]”, in data set [1] (Bz-dU at every n, at 50 nM similar to anti-PD-L1 antibody, variant of PL002), the “functional effect of the aptamer” value is given as “active”.

A word on the IC50: it is the concentration needed to halve the response being measured.
